Measurements reported in PubChem BioAssay AID1259405 (NCATS, 2018)
Shown is an unselected part of about 50,000 reagents. Over the whole deposit, about 4,000 (8%) got an active call. 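Mouse siRNA library applied to hamster cells; one well for each siRNA.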 A number with no mark means an inactive call. Reagents against one gene are numbered here.

Test: 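Mouse-designed siRNAs used to find CHO productivity engineering targets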 (primary screen)
Cells: Chinese hamster CHO-K1 ovary cells with stable secreted eGFP expression
Reagent: single siRNA against mouse genes, 0.8 pmol siRNA per well (2 µl of 400 nM stock)
Time to read-out: 3 days
Detection: 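Per-well intracellular GFP measured by laser scanning cytometry, plus viability from ATP luminescence, each relative to plate median of non-targeting control wells, in %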
Direction: GFP, % of control: higher = more GFP per well, higher productivity; viability (ATP), % of control: higher = more viable cells (more ATP)
Call rule: 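Called active when intracellular GFP, relative to negative control, is at or above 120%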

gene | siRNA no. | GFP, % of control | viability (ATP), % of control
Krtcap2 (keratinocyte associated protein 2) | 1 | 44.6 | 61.9
Krtcap2 (keratinocyte associated protein 2) | 2 | 118 | 85.2
Krtcap2 (keratinocyte associated protein 2) | 3 | 115 | 61.2
Or7g12 (olfactory receptor family 7 subfamily G member 12) | 1 | 52 | 50.7
Or7g12 (olfactory receptor family 7 subfamily G member 12) | 2 | 69.6 | 53.7
Or7g12 (olfactory receptor family 7 subfamily G member 12) | 3 | 84.7 | 67.5
Gsdmc3 (gasdermin C3) | 1 | 71 | 61.9
Gsdmc3 (gasdermin C3) | 2 | 47.4 | 41.2
Gsdmc3 (gasdermin C3) | 3 | 95.9 | 87.2
Zfp516 (zinc finger protein 516) | 1 | 59.5 | 60.6
Zfp516 (zinc finger protein 516) | 2 | 89.2 | 92.3
Rhobtb3 (Rho-related BTB domain containing 3) | 1 | 75.1 | 77.3
Rhobtb3 (Rho-related BTB domain containing 3) | 2 | 75.5 | 83.4
Rhobtb3 (Rho-related BTB domain containing 3) | 3 | 74.1 | 92.2
Ninj2 (ninjurin 2) | 1 | 122 (active) | 82.6
Ninj2 (ninjurin 2) | 2 | 114 | 58.7
Sdad1 (SDA1 domain containing 1) | 1 | 97.5 | 84.3
Sdad1 (SDA1 domain containing 1) | 2 | 55.7 | 60.1
Sdad1 (SDA1 domain containing 1) | 3 | 40 | 65.2
Blzf1 (basic leucine zipper nuclear factor 1) | 1 | 106 | 102
Blzf1 (basic leucine zipper nuclear factor 1) | 2 | 81.3 | 87
Blzf1 (basic leucine zipper nuclear factor 1) | 3 | 103 | 131
6030458C11Rik (RIKEN cDNA 6030458C11 gene) | 1 | 40.8 | 45.6
6030458C11Rik (RIKEN cDNA 6030458C11 gene) | 2 | 82.9 | 87.5
6030458C11Rik (RIKEN cDNA 6030458C11 gene) | 3 | 75.6 | 123
Or8d2 (olfactory receptor family 8 subfamily D member 2) | 1 | 80.2 | 27
Or8d2 (olfactory receptor family 8 subfamily D member 2) | 2 | 71 | 85.8
Or8d2 (olfactory receptor family 8 subfamily D member 2) | 3 | 88.7 | 69.7
Ppp2r2c (protein phosphatase 2, regulatory subunit B, gamma) | 1 | 44.7 | 36.7
Ppp2r2c (protein phosphatase 2, regulatory subunit B, gamma) | 2 | 62.3 | 101
Ppp2r2c (protein phosphatase 2, regulatory subunit B, gamma) | 3 | 107 | 126
Dcun1d5 (defective in cullin neddylation 1 domain containing 5) | 1 | 80 | 79.9
Dcun1d5 (defective in cullin neddylation 1 domain containing 5) | 2 | 71.9 | 58.2
Dcun1d5 (defective in cullin neddylation 1 domain containing 5) | 3 | 87.6 | 73.9
Ppp2r1b (protein phosphatase 2, regulatory subunit A, beta) | 1 | 128 (active) | 136
Ppp2r1b (protein phosphatase 2, regulatory subunit A, beta) | 2 | 93.5 | 101
Ppp2r1b (protein phosphatase 2, regulatory subunit A, beta) | 3 | 74.3 | 85.7
Slc29a1 | 1 | 141 (active) | 121
Slc29a1 | 2 | 87.5 | 77.5
Slc29a1 | 3 | 95.9 | 102
Defb23 (defensin beta 23) | 1 | 65 | 88.7
Defb23 (defensin beta 23) | 2 | 44.9 | 45.7
Defb23 (defensin beta 23) | 3 | 106 | 87.1
Btf3 (basic transcription factor 3) | 1 | 67.9 | 39.3
Btf3 (basic transcription factor 3) | 2 | 64.5 | 53.8
Btf3 (basic transcription factor 3) | 3 | 102 | 112
Pold2 (polymerase (DNA directed), delta 2, regulatory subunit) | 1 | 104 | 90.7
Pold2 (polymerase (DNA directed), delta 2, regulatory subunit) | 2 | 73.8 | 80.8
Arhgap29 (Rho GTPase activating protein 29) | 1 | 116 | 100
Arhgap29 (Rho GTPase activating protein 29) | 2 | 102 | 100
Parg (poly (ADP-ribose) glycohydrolase) | 1 | 50.6 | 72.4
Parg (poly (ADP-ribose) glycohydrolase) | 2 | 83.1 | 86.5
Parg (poly (ADP-ribose) glycohydrolase) | 3 | 64.4 | 79.4
Map3k9 (mitogen-activated protein kinase kinase kinase 9) | 1 | 97.4 | 85.5
Map3k9 (mitogen-activated protein kinase kinase kinase 9) | 2 | 61.7 | 64.1
Map3k9 (mitogen-activated protein kinase kinase kinase 9) | 3 | 90.9 | 90.6
Or5aq7 (olfactory receptor family 5 subfamily AQ member 7) | 1 | 55.1 | 33.4
Or5aq7 (olfactory receptor family 5 subfamily AQ member 7) | 2 | 91.8 | 69.7
Or5aq7 (olfactory receptor family 5 subfamily AQ member 7) | 3 | 119 | 78.2
Pcolce2 (procollagen C-endopeptidase enhancer 2) | 1 | 101 | 106
Pcolce2 (procollagen C-endopeptidase enhancer 2) | 2 | 110 | 94.8
Krt33a (keratin 33A) | 1 | 66.2 | 83.6
Krt33a (keratin 33A) | 2 | 81.6 | 67.9
Rpl39l (ribosomal protein L39-like) | 1 | 68.4 | 70.1
Rpl39l (ribosomal protein L39-like) | 2 | 61.3 | 53.5
Rpl39l (ribosomal protein L39-like) | 3 | 67.6 | 78
Nol9 (nucleolar protein 9) | 1 | 139 (active) | 141
Nol9 (nucleolar protein 9) | 2 | 81.1 | 63.2
Nol9 (nucleolar protein 9) | 3 | 87.2 | 73.6
Cnot11 (CCR4-NOT transcription complex, subunit 11) | 1 | 80.5 | 106
Cnot11 (CCR4-NOT transcription complex, subunit 11) | 2 | 94.9 | 107
Cnot11 (CCR4-NOT transcription complex, subunit 11) | 3 | 90.4 | 73.2
Abca6 (ATP-binding cassette, sub-family A member 6) | 1 | 83.6 | 121
Abca6 (ATP-binding cassette, sub-family A member 6) | 2 | 33.9 | 48.9
Abca6 (ATP-binding cassette, sub-family A member 6) | 3 | 74.6 | 93.4
Scaf1 (SR-related CTD-associated factor 1) | 1 | 115 | 66
Scaf1 (SR-related CTD-associated factor 1) | 2 | 97.2 | 95.9
Scaf1 (SR-related CTD-associated factor 1) | 3 | 118 | 84.4
Peds1 (plasmanylethanolamine desaturase 1) | 1 | 124 (active) | 71.5
Peds1 (plasmanylethanolamine desaturase 1) | 2 | 4.22 | 9.67
Peds1 (plasmanylethanolamine desaturase 1) | 3 | 108 | 96.7
Or51e1 (olfactory receptor family 51 subfamily E member 1) | 1 | 53.9 | 72.2
Or51e1 (olfactory receptor family 51 subfamily E member 1) | 2 | 102 | 103
Or51e1 (olfactory receptor family 51 subfamily E member 1) | 3 | 49.9 | 64.8
Socs1 (suppressor of cytokine signaling 1) | 1 | 65.6 | 41.8
Socs1 (suppressor of cytokine signaling 1) | 2 | 21.8 | 37.2
Socs1 (suppressor of cytokine signaling 1) | 3 | 86.9 | 82.9
Pramel20 (PRAME like 20) | 1 | 91.8 | 102
Pramel20 (PRAME like 20) | 2 | 63.9 | 56.4
Pramel20 (PRAME like 20) | 3 | 105 | 56.9
AI182371 (expressed sequence AI182371) | 1 | 61.7 | 43.3
AI182371 (expressed sequence AI182371) | 2 | 92.4 | 49.5
AI182371 (expressed sequence AI182371) | 3 | 42.4 | 31.1
Blvra (biliverdin reductase A) | 1 | 79.5 | 84
Blvra (biliverdin reductase A) | 2 | 48.3 | 51.6
Blvra (biliverdin reductase A) | 3 | 51.4 | 63.1
Adamtsl4 (ADAMTS-like 4) | 1 | 70.6 | 83.3
Adamtsl4 (ADAMTS-like 4) | 2 | 100 | 90.2
Adamtsl4 (ADAMTS-like 4) | 3 | 62.3 | 53.5
Thy1 (thymus cell antigen 1, theta) | 1 | 92.9 | 71.7
Thy1 (thymus cell antigen 1, theta) | 2 | 95 | 86.3
Thy1 (thymus cell antigen 1, theta) | 3 | 62.7 | 110
Lrfn3 | 1 | 89.8 | 40.4
Lrfn3 | 2 | 102 | 76.5
Lrfn3 | 3 | 58.6 | 66.1
Aen (apoptosis enhancing nuclease) | 1 | 59 | 53.5
Aen (apoptosis enhancing nuclease) | 2 | 100 | 102
Aen (apoptosis enhancing nuclease) | 3 | 64.4 | 58.2

An excerpt from above, limited to “viability (ATP), % of control”.
Scaf1 (SR-related CTD-associated factor 1) #1: 66
Scaf1 (SR-related CTD-associated factor 1) #2: 95.9
Scaf1 (SR-related CTD-associated factor 1) #3: 84.4
Peds1 (plasmanylethanolamine desaturase 1) #1: 71.5 (active)
Peds1 (plasmanylethanolamine desaturase 1) #2: 9.67
Peds1 (plasmanylethanolamine desaturase 1) #3: 96.7
Or51e1 (olfactory receptor family 51 subfamily E member 1) #1: 72.2
Or51e1 (olfactory receptor family 51 subfamily E member 1) #2: 103
Or51e1 (olfactory receptor family 51 subfamily E member 1) #3: 64.8
Socs1 (suppressor of cytokine signaling 1) #1: 41.8
Socs1 (suppressor of cytokine signaling 1) #2: 37.2
